# Reference: article doi:10.1101/2024.07.01.601625
# Amino acid sequences for entries named in this document (tags omitted).
# UniProt P49674: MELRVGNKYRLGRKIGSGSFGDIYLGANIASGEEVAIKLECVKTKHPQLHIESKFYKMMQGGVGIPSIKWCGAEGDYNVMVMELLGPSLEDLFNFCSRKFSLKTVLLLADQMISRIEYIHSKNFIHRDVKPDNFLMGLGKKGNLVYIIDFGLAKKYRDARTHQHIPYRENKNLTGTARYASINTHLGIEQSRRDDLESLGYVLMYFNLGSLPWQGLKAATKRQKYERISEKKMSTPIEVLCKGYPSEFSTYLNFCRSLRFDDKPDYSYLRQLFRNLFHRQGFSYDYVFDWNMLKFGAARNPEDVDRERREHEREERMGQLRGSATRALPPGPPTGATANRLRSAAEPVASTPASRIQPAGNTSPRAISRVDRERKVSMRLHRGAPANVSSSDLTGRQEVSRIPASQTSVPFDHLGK
# No constants are given. Whether binding was seen depends on the method and setting. Binding seen in cells or lysates may run through a third protein. Here binding means that the protein was enriched with, or labelled near, the bait; the list need not be complete. Tags and fused reporters may be left off the sequences shown.
# T1: GFP-NAP1L4-C383S (human) (UniProt Q99733)
# T1 sequence: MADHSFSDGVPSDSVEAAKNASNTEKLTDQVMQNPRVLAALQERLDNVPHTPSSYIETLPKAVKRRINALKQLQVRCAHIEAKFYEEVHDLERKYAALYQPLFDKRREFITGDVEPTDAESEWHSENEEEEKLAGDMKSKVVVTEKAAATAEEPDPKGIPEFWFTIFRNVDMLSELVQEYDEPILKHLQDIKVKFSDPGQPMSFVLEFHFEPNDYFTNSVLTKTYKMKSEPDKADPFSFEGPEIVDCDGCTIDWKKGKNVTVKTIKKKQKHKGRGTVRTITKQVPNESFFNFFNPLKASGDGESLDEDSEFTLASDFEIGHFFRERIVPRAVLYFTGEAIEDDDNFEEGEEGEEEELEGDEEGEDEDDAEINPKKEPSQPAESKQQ
# T2: GFP-NAP1L4 (human) (UniProt Q99733)
# T2 sequence: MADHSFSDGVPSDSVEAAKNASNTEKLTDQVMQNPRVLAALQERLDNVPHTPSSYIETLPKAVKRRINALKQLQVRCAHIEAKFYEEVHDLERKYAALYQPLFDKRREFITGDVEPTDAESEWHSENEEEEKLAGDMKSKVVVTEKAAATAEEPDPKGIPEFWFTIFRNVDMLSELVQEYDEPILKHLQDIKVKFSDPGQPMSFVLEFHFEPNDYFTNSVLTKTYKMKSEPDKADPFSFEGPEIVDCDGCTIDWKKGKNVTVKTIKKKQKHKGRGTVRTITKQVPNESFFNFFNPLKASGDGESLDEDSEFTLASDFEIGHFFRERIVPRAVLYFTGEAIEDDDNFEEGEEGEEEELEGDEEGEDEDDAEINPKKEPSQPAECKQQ
# How the values were obtained:
# [1] = molecular target: T1, GFP-NAP1L4-C383S (human); experiment: affinity purification with mass spectrometry
# [2] = molecular target: T2, GFP-NAP1L4 (human); experiment: affinity purification with mass spectrometry
binding [1],binding [2],Molecule
binds,binds,CSNK1E (from UniProt P49674 1-416) (enzyme)
binds,binds,"PAXBP1 (protein, UniProt Q9Y5B6 1-917) MFRKARRVNVRKRNDSEEEERERDEEQEPPPLLPPPGTGEEAGPGGGDRAPGGESLLGPGPSPPSALTPGLGAEAGGGFPGGAEPGNGLKPRKRPRENKEVPRASLLSFQDEEEENEEVFKVKKSSYSKKIVKLLKKEYKEDLEKSKIKTELNSSAESEQPLDKTGHVKDTNQEDGVIISEHGEDEMDMESEKEEEKPKTGGAFSNALSSLNVLRPGEIPDAAFIHAARKKRQMARELGDFTPHDNEPGKGRLVREDENDASDDEDDDEKRRIVFSVKEKSQRQKIAEEIGIEGSDDDALVTGEQDEELSRWEQEQIRKGINIPQVQASQPAEVNMYYQNTYQTMPYGSSYGIPYSYTAYGSSDAKSQKTDNTVPFKTPSNEMTPVTIDLVKKQLKDRLDSMKELHKTNRQQHEKHLQSRVDSTRAIERLEGSSGGIGERYKFLQEMRGYVQDLLECFSEKVPLINELESAIHQLYKQRASRLVQRRQDDIKDESSEFSSHSNKALMAPNLDSFGRDRALYQEHAKRRIAEREARRTRRRQAREQTGKMADHLEGLSSDDEETSTDITNFNLEKDRISKESGKVFEDVLESFYSIDCIKSQFEAWRSKYYTSYKDAYIGLCLPKLFNPLIRLQLLTWTPLEAKCRDFENMLWFESLLFYGCEEREQEKDDVDVALLPTIVEKVILPKLTVIAENMWDPFSTTQTSRMVGITLKLINGYPSVVNAENKNTQVYLKALLLRMRRTLDDDVFMPLYPKNVLENKNSGPYLFFQRQFWSSVKLLGNFLQWYGIFSNKTLQELSIDGLLNRYILMAFQNSEYGDDSIKKAQNVINCFPKQWFMNLKGERTISQLENFCRYLVHLADTIYRNSIGCSDVEKRNARENIKQIVKLLASVRALDHAMSVASDHNVKEFKSLIEGK"
binds,binds,"NPM3 (protein, UniProt O75607 1-178) MAAGTAAALAFLSQESRTRAGGVGGLRVPAPVTMDSFFFGCELSGHTRSFTFKVEEEDDAEHVLALTMLCLTEGAKDECNVVEVVARNHDHQEIAVPVANLKLSCQPMLSLDDFQLQPPVTFRLKSGSGPVRITGRHQIVTMSNDVSEEESEEEEEDSDEEEVELCPILPAKKQGGRP"
